In patent publication CN112538116A one finds binding data, which are given here for five molecules.

The chains behind the UniProt entries cited, without tags or fusion partners. Where a name states a change or a piece, a line headed by the entry shows the natural chain unless it says otherwise. Residues count along the entry.
UniProt Q07011: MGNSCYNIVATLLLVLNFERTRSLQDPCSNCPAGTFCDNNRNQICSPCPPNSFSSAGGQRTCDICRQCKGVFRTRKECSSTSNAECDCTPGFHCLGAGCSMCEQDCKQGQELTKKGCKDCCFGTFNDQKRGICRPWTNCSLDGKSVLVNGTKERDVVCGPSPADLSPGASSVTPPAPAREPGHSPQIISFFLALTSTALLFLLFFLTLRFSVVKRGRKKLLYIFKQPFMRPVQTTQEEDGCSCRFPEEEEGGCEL
人4-1BB on Jurkat-4-1BB细胞: residues 24-255 of Q07011
带组氨酸标签的4-1BB抗原: residues 24-186 of Q07011

These are yes or no findings as the source states them, for the method shown. Some entries that bind do so weakly or less than the wild type.

One test deals with 带组氨酸标签的4-1BB抗原 (UniProt Q07011). Kind of test: Biacore, antibody captured by anti-human IgG on CM5, His-tagged 4-1BB as analyte.
Test [1] concerns the target 人4-1BB on Jurkat-4-1BB细胞 (human) (UniProt Q07011). Kind of test: FACS on Jurkat-4-1BB cells.
The target of a further test is 4-1BB-ECD-hFc (human) (UniProt Q07011). Nature of the test: ELISA, method as in Example 1.

B1: 抗人4-1BB人源化抗体3A11 (antibody, V domains shown)
VH: EVQLVESGGGLVKPGGSLRLSCAASGFIFNTNAMNWVRQAPGKGLEWIARIRSKINNYATYYADSVKDRFTISRDDSKNTLYLQMNSLKTEDTAVYYCNWDEAYWGQGTLVTVSS
VL: DIQMTQSPSSLSASVGDRVTITCKASDHINNWLAWYQQKPGKAPKLLIFGATSLETGVPSRFSGSASGNDYTLTISSLQPEDFATYYCQQYWSIPYTFGQGTKLEIK
B1: the binding result in the test with 带组氨酸标签的4-1BB抗原 is listed as “binds”.

B2: 抗人4-1BB人源化抗体2F10 (antibody, V domains shown)
VH: EVQLVQSGAEVKKPGATVKISCKVSGFNIEDTYLNWVQQAPGKGLEWIGKIYPANGDTKYDPKFQGRATITADTSTDTAYMELSSLRSEDTAVYYCTRGYGSNFFDYWGQGTLVTVSS
VL: EIVLTQSPATLSLSPGERATLSCRASESVDSYDNSFMHWYQQKPGQAPRLLIYRASNLESGIPARFSGSGSRTDFTLTISSLEPEDFAVYYCQQSNEDPYTFGQGTKLEIK
Take B2: the binding entry (in test [1]; with 4-1BB-ECD-hFc (human); in the test with 带组氨酸标签的4-1BB抗原) was “binds” throughout.

B3: 抗人4-1BB人源化抗体1A2 (antibody, V domains shown)
VH: EAQLVQSGAEVKKPGATVKISCKVSGFNIKDTYMNWVQQAPGKGLEWIGRIAPANGNTKYAPQFQDRATITADTSTDTAYMELSSLRSEDTAVYYCARSYGSNFFDYWGQGTLVTVSS
VL: EIVLTQSPATLSLSPGERATLSCKSSQSVDNYDNSFMHWYQQKPGQAPRLLIYRASNLETGIPARFSGSGSRTDFTLTISSLEPEDFAVYYCQQSVENPFTFGQGTKLEIK
As for B3, the binding result with 带组氨酸标签的4-1BB抗原 is listed as “binds”.

B4: 抗人4-1BB人源化抗体8H8 (antibody, V domains shown)
VH: QIQLVQSGSELKKPGASVKVSCKASGYTFSNYGMNWVRQAPGQGLEWMGWINTHTGEPTYADEFKGRFVFSLDTSVSTAYLQISSLKAEDTAVYYCARVLTMVMDYWGQGTLVTVSS
VL: DIVLTQSPDSLAVSLGERATINCRASEIIDGSGNSFVHWYQQKPGQPPKLLIYRTSTLESGVPDRFSGSGSRTDFTLTISSLQAEDVAVYYCLQTVEDPWTFGGGTKVEIK
As to B4, the binding entry in the test with 带组氨酸标签的4-1BB抗原 was “binds”.

B5: 抗人4-1BB人源化抗体10B2 (antibody, V domains shown)
VH: QVQLVESGGGVVQPGRSLRLSCAASGFTFSTFGLHWVRQAPGKGLEWVAYISSDSNTIYYADTMKGRFTISRDNSKNTLYLQMNSLRAEDTAVYYCTRGDPAYYGYGGRFVYALDFWGQGTLVTVSS
VL: DVVVTQTPLSLSVTPGQPASISCRSSQSLTNSYGHTYLSWYLQKPGQSPQLLIYGISIRFSGVPDRFSGSGSGTDFTLKISRVEAEDVGVYYCLQGTHQPWTFGGGTKVEIK
In the case of B5, the binding result with 带组氨酸标签的4-1BB抗原 is listed as “binds”.
